# According to paper PMC7377239, “Cardiovascular Effects of Polychlorinated Biphenyls and Their Major Metabolites” (Environmental Health Perspectives, 2020):
# System: iPSC-CMs, iPSC-ECs and HUVECs phenotypes
# Assay: ToxPi 2.0 integration of POD values and physicochemical descriptors
# Set-up: species or system human
# Details: Biological Activity ToxPi; POD values of iPSC-CM, iPSC-EC and HUVEC phenotypes integrated
# Source text: Phenotypic responses were quantitatively assessed using concentration–response modeling as detailed elsewhere ([Sirenko et al. 2017]). Briefly, phenotypic readouts were normalized to vehicle controls and fit to a four-parameter logistic model in R studio software (version 3.1.1; R Development Core Team). Following EPA guidance on dose–response modeling, a cutoff of one standard deviation across means of vehicle control (i.e., 0.5% vol/vol DMSO in cell culture media) wells was applied to determine the point-of-departure (POD) values ([U.S. EPA 2012]). In the absence of a concentration–response, the highest tested concentration (i.e., 100μM ) was assigned as “no observable adverse effect level.” The concentration–response assessment R script, as well as templates for vehicle and concentration–response data, are available as a supplement to Sirenko et al. ([2017]). The ability of physicochemical properties to predict differences in PODs were evaluated by multiregression and mixed-effects modeling using R.
# POD values were then integrated using ToxPi 2.0 ([Marvel et al. 2018]) software. In ToxPi, each slice is representative of cell type– and time-point–specific phenotypes. The area of each slice is proportional to the relative value (e.g., bioactivity or physicochemical descriptor value) of the chemical within the data set. ToxPi scores were used to rank PCBs and their metabolites according to their overall bioactivity and to determine variability in total observable biological responses and chemical characteristics for each major metabolite class and chlorination status (mono-, hexa-chlorinated). Additional visualizations such as dumbbell and principal components analysis plots were generated in R Studio (version 1.1.456; R version 3.5.1; R Development Core Team) using the ggplot2 package.
row,SMILES,ToxPi_Score_Bioactivity
1,"Oc1ccc(O)c(-c2ccc(Cl)cc2)c1 [2',5'-diOH-PCB 3, 4-Chloro-2′,5′-dihydroxybiphenyl]",0.7927
2,Oc1ccccc1-c1ccc(Cl)cc1 [2'-OH-PCB 3],0.4642
3,Oc1cccc(-c2ccc(Cl)cc2)c1 [3'-OH-PCB 3],0.6594
4,O=S(=O)(O)Oc1cccc(-c2ccc(Cl)cc2)c1 [3'-PCB 3 sulfate],0.07444
5,O=S(=O)(O)Oc1cc(-c2ccccc2)ccc1Cl [3-PCB 3 sulfate],0.06149

# Same assay, conditions: Chemical-Biological Integration ToxPi; in vitro data plus physicochemical descriptors
row,SMILES,ToxPi_Score_ChemBiol
1,"Oc1ccc(O)c(-c2ccc(Cl)cc2)c1 [2',5'-diOH-PCB 3, 4-Chloro-2′,5′-dihydroxybiphenyl]",0.6753
2,Oc1ccccc1-c1ccc(Cl)cc1 [2'-OH-PCB 3],0.3906
3,Oc1cccc(-c2ccc(Cl)cc2)c1 [3'-OH-PCB 3],0.5365
4,O=S(=O)(O)Oc1cccc(-c2ccc(Cl)cc2)c1 [3'-PCB 3 sulfate],0.1859
5,O=S(=O)(O)Oc1cc(-c2ccccc2)ccc1Cl [3-PCB 3 sulfate],0.184

# Where a name gives a salt, the structure may show the parent alone.
